Laboratory results from article PMC10417424.

Sequences of proteins named here, by UniProt entry; tags and fusion partners are left off.
UniProt Q96GG9: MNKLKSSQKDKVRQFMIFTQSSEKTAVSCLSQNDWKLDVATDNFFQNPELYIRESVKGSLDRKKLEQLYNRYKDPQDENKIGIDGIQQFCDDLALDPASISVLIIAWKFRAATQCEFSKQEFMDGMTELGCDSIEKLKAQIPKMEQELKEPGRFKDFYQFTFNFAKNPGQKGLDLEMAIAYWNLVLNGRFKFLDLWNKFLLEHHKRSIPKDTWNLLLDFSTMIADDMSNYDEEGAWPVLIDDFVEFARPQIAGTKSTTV
UniProt Q13620: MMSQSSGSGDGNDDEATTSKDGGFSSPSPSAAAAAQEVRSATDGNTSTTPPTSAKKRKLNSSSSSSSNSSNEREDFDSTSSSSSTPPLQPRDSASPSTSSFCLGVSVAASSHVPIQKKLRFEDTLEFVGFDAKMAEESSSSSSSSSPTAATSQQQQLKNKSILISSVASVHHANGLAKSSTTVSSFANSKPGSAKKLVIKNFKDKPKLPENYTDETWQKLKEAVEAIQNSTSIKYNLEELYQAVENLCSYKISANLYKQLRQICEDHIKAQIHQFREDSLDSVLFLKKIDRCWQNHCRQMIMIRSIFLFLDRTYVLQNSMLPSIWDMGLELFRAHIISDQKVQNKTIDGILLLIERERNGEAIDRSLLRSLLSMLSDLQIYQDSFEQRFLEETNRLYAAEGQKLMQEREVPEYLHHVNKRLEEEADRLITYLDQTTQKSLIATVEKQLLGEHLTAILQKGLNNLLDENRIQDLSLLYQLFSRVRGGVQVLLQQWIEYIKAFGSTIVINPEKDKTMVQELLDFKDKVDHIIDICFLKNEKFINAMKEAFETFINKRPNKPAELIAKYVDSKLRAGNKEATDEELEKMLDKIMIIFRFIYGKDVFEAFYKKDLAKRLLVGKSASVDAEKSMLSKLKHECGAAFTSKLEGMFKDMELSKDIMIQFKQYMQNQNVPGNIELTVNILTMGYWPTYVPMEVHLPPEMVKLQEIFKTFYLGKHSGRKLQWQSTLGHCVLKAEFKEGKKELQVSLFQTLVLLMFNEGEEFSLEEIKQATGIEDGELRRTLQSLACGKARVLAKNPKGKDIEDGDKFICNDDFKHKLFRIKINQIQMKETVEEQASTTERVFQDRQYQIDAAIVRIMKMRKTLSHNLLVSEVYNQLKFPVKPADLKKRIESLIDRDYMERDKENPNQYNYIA
UniProt P22314: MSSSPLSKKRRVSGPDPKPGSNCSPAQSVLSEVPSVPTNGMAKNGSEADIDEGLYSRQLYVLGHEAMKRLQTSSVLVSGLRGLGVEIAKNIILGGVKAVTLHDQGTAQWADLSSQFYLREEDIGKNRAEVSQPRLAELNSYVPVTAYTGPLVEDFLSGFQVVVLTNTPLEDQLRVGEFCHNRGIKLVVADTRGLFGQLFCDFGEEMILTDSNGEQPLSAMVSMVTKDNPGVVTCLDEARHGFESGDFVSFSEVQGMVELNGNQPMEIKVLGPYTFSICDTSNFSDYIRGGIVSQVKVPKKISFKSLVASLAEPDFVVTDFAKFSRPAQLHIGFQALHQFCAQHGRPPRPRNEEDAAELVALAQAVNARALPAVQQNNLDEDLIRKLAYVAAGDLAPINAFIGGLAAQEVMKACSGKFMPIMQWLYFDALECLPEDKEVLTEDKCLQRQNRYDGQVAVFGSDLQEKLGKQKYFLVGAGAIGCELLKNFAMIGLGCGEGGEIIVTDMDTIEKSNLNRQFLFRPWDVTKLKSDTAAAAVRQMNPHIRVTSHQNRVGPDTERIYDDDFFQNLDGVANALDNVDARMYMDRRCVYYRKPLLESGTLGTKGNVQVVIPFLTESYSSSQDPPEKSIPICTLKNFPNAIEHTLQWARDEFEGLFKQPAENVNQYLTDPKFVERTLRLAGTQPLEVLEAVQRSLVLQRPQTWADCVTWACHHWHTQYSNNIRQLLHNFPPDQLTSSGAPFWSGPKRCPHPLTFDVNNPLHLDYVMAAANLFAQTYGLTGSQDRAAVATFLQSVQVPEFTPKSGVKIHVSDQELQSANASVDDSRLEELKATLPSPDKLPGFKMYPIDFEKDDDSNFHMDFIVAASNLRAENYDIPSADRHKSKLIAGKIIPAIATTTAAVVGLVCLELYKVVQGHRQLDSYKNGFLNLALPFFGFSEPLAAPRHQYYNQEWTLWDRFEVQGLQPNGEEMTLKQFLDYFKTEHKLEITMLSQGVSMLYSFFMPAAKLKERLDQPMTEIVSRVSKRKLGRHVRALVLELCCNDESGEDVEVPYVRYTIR

Molecular target: Flag-DCUN1D1 (defective in cullin neddylation 1 domain containing 1) (UniProt Q96GG9)
Test: affinity purification with mass spectrometry; HEK 293TT cells transfected in duplicate with pcDNA-Flag-DCUN1D1 (bait) or peGFP-N3 (negative control), lysed 48 h later; EZview red anti-Flag M2 affinity gel; tryptic digestion and LC-MS/MS; hits filtered against the controls and the Crapome database

| binding | Substance |
| --- | --- |
| binds | cullin 4B (CUL4B) (from UniProt Q13620 1-913) |
| binds | ubiquitin-activating enzyme UBA1 (from UniProt P22314 1-1058) |

These are yes or no findings as the source states them, for the method shown. Binding seen in cells or lysates may run through a third protein. These calls come from enrichment with a bait or labelling near it, and not all partners need be listed.
